Test results reported in PMC5499540.
No constants are given. Whether binding was seen depends on the method and setting. Some entries that bind do so weakly or less than the wild type.

Amino acid sequences for entries named in this document (tags omitted). A change or cut given only in a name is not applied to a line headed by its entry. Residues count along the entry.
UniProt Q05471: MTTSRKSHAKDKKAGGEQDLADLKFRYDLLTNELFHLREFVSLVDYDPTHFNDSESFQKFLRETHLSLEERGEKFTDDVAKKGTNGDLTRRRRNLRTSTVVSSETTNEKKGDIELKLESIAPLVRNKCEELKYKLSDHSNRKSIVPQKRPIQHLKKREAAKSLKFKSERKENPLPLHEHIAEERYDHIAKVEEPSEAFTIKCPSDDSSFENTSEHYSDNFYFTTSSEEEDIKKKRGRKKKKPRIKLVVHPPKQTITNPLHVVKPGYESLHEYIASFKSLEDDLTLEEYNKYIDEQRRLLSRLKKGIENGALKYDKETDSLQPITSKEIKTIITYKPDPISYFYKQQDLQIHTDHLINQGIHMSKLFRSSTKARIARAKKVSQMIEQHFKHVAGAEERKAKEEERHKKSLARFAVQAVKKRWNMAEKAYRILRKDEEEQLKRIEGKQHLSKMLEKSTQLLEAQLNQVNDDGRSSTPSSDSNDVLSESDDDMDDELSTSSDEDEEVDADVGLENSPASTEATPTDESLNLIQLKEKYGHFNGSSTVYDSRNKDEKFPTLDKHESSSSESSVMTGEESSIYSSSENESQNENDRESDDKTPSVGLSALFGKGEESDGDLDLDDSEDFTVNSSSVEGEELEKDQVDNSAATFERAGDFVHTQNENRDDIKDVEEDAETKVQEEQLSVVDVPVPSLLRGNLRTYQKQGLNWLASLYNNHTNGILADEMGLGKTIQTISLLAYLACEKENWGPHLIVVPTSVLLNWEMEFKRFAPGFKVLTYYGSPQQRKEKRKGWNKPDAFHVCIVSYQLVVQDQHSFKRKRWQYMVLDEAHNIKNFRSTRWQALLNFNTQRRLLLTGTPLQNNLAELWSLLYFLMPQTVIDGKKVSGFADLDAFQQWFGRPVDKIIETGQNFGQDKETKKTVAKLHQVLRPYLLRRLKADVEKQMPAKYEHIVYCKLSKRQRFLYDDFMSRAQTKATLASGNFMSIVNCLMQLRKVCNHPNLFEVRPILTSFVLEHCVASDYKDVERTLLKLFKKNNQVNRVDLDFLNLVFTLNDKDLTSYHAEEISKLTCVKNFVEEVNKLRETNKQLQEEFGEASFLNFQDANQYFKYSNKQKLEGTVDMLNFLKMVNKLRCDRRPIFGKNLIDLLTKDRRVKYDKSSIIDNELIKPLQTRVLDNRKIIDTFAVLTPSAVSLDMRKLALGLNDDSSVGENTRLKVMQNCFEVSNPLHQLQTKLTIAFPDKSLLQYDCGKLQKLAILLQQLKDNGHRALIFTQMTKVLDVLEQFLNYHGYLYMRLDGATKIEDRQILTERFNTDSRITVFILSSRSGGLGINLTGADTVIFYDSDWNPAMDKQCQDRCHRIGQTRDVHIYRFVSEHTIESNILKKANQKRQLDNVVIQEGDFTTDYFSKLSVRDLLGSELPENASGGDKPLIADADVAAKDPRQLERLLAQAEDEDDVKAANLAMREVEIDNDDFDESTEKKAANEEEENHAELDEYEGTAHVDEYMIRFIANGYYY
Swr1 C-terminal truncation to 1359: residues 1-1359 of Q05471
Swr1 N-terminal truncation, first 210 residues removed: residues 211-1514 of Q05471
Swr1 N-terminal truncation, first 264 residues removed: residues 265-1514 of Q05471
Swr1 N-terminal truncation to residue 299: residues 300-1514 of Q05471
Swr1 N-terminal truncation, 339 residues deleted: residues 340-1514 of Q05471
Swr1 N-terminal truncation to residue 369: residues 370-1514 of Q05471
Swr1 N-terminal truncation to residue 409: residues 410-1514 of Q05471
Swr1 N-terminal truncation to residue 459: residues 460-1514 of Q05471
Swr1 N-terminal truncation to residue 662: residues 663-1514 of Q05471
UniProt Q03940: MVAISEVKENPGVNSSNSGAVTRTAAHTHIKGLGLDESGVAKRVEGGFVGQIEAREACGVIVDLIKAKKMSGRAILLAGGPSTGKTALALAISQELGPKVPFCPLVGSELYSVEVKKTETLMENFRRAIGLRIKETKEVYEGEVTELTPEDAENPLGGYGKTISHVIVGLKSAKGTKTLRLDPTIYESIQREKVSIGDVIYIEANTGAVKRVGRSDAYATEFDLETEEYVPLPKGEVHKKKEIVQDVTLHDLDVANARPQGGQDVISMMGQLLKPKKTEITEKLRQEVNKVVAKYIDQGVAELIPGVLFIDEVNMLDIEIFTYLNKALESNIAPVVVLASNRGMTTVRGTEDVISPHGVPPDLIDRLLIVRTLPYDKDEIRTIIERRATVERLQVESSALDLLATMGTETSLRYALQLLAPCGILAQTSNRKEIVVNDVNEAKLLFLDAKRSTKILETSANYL
UniProt Q03433: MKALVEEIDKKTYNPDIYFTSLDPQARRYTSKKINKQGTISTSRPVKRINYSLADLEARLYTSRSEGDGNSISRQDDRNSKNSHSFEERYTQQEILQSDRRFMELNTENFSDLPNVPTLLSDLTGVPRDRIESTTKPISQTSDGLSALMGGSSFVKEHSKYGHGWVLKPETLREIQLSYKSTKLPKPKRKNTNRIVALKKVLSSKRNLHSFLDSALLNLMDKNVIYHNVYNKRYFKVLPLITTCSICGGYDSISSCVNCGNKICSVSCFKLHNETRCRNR
UniProt Q06707: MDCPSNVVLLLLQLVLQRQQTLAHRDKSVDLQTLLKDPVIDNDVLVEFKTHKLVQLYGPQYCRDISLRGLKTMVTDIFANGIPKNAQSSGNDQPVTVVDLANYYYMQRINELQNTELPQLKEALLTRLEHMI
UniProt Q03388: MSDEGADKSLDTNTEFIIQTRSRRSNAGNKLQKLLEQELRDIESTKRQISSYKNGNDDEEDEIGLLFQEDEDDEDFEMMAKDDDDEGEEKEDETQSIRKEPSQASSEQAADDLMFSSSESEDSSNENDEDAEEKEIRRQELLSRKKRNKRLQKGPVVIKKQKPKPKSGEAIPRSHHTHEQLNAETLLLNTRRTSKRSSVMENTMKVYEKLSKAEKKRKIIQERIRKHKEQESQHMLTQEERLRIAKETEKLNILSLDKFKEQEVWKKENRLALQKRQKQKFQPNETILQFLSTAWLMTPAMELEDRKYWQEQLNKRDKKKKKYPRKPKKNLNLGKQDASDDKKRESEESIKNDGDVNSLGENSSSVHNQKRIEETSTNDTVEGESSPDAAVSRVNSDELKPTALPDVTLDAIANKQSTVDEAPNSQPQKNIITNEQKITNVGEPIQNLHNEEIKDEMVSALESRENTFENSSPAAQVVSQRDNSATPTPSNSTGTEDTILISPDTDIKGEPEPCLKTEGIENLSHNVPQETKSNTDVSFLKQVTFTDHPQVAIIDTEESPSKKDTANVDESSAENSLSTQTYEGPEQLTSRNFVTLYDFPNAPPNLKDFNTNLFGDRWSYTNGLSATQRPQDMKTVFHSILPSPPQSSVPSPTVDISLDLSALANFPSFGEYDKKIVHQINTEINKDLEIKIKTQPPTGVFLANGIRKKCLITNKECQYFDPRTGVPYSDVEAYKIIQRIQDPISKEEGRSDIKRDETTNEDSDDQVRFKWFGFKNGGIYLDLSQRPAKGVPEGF
UniProt Q12509: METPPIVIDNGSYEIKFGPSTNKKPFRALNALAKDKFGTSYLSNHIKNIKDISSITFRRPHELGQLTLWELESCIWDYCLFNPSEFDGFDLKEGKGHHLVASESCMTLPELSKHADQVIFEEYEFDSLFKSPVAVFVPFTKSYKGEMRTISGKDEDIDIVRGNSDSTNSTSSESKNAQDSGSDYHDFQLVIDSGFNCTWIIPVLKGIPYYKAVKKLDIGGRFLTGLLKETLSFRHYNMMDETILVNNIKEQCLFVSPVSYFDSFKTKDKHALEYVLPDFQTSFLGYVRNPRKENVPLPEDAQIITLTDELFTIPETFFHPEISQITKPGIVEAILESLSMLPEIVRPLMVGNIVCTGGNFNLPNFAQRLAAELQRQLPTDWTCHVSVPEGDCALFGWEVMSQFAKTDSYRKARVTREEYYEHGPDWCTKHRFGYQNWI

Tests used:
Experiment in all cases: co-purification of co-expressed subunits (StrepTactin affinity, ion exchange, SDS gel); all fourteen genes co-expressed in High Five cells; lysis and wash in 50 mM Tris pH 8.0, 500 mM NaCl; captured by the twin Strep-tag of Swr1 or its variant on StrepTactin HP, then HiTrap Q HP; bands on the SDS gel identified by mass spectrometry
[1] = target: Swr1 (residues 1–1514 with an N-terminal 8-histidine and C-terminal twin Strep-tag) (yeast) (UniProt Q05471)
[2] = target: Swr1 N-terminal truncation to residue 299 (yeast) (UniProt Q05471)
[3] = target: Swr1 N-terminal truncation to residue 369 (yeast) (UniProt Q05471)
[4] = target: Swr1 N-terminal truncation to residue 409 (yeast) (UniProt Q05471)
[5] = target: Swr1 N-terminal truncation to residue 459 (yeast) (UniProt Q05471)
[6] = target: Swr1 N-terminal truncation to residue 662 (yeast) (UniProt Q05471)
[7] = target: Swr1 N-terminal truncation, 339 residues deleted (yeast) (UniProt Q05471)
[8] = target: Swr1 N-terminal truncation, first 210 residues removed (yeast) (UniProt Q05471)
[9] = target: Swr1 N-terminal truncation, first 264 residues removed (yeast) (UniProt Q05471)
[10] = target: Swr1 C-terminal truncation to 1359 (yeast) (UniProt Q05471)

Measured: binding

Rvb1 (from UniProt Q03940 1-463)
not listed: [10]
binds: all other assays above

Swc6 (from UniProt Q03433 1-280)
binds: all assays above

Swc7 (from UniProt Q06707 1-132)
binds: [1]

Swc2 (from UniProt Q03388 1-795)
not listed: [10]
binds: all other assays above

Arp6 (from UniProt Q12509 1-438)
not listed: [10]
binds: all other assays above

B1: Arp4 (protein, UniProt P80428 1-489)
chain: MSNAALQVYGGDEVSAVVIDPGSYTTNIGYSGSDFPQSILPSVYGKYTADEGNKKIFSEQSIGIPRKDYELKPIIENGLVIDWDTAQEQWQWALQNELYLNSNSGIPALLTEPVWNSTENRKKSLEVLLEGMQFEACYLAPTSTCVSFAAGRPNCLVVDIGHDTCSVSPIVDGMTLSKSTRRNFIAGKFINHLIKKALEPKEIIPLFAIKQRKPEFIKKTFDYEVDKSLYDYANNRGFFQECKETLCHICPTKTLEETKTELSSTAKRSIESPWNEEIVFDNETRYGFAEELFLPKEDDIPANWPRSNSGVVKTWRNDYVPLKRTKPSGVNKSDKKVTPTEEKEQEAVSKSTSPAANSADTPNETGKRPLEEEKPPKENNELIGLADLVYSSIMSSDVDLRATLAHNVVLTGGTSSIPGLSDRLMTELNKILPSLKFRILTTGHTIERQYQSWLGGSILTSLGTFHQLWVGKKEYEEVGVERLLNDRFR
binds: [1] | [2] | [7] | [8] | [9]

B2: Swc4 (protein, UniProt P53201 1-476)
chain: MSSSDIFDVLNIKQKSRSPTNGQVSVPSSSAANRPKPQVTGMQRELFNLLGENQPPVVIKSGNNFKEKMLSTSKPSPWSFVEFKANNSVTLRHWVKGSKELIGDTPKESPYSKFNQHLSIPSFTKEEYEAFMNENEGTQKSVESEKNHNENFTNEKKDESKNSWSFEEIEYLFNLCKKYDLRWFLIFDRYSYNNSRTLEDLKEKFYYTCRNYFKASDPSNPLLSSLNFSAEKEIERKKYLQRLLSRSAAEIAEEEALVVESKKFEMAAKRTLAERESLLRLLDSPHSDQTITQYLTSQGMSQLYNALLADKTRKRKHDLNIPENPWMKQQQQFAQHRQLQQLNVKKSEVKENLSPKKTKRQRQEMQTALKRKSESAYAEQLLKDFNSDERKALGVITHGEKLSPGVYLRSTKLSTFKPALQNKILAILQELSLPSRPVMPSFDVMERQEELLKKINTLIDLKKHVDKYEAGMSITK
binds: [1] | [2] | [8] | [9]

B3: Yaf9 (protein, UniProt P53930 1-226)
chain: MAPTISKRIKTLSVSRPIIYGNTAKKMGSVKPPNAPAEHTHLWTIFVRGPQNEDISYFIKKVVFKLHDTYPNPVRSIEAPPFELTETGWGEFDINIKVYFVEEANEKVLNFYHRLRLHPYANPVPNSDNGNEQNTTDHNSKDAEVSSVYFDEIVFNEPNEEFFKILMSRPGNLLPSNKTDDCVYSKQLEQEEIDRIEIGIEKVDKEIDELKQKLENLVKQEAINGS
binds: [1] | [2] | [8] | [9]

B4: Swc3 (protein, UniProt P31376 1-625)
chain: MPAVLRTRSKESSIEQKPASRTRTRSRRGKRGRDDDDDDDDEESDDAYDEVGNDYDEYASRAKLATNRPFEIVAGLPASVELPNYNSSLTHPQSIKNSGVLYDSLVSSRRTWVQGEMFELYWRRPKKIVSESTPAATESPTSGTIPLIRDKMQKMCDCVMSGGPHTFKVRLFILKNDKIEQKWQDEQELKKKEKELKRKNDAEAKRLRMEERKRQQMQKKIAKEQKLQLQKENKAKQKLEQEALKLKRKEEMKKLKEQNKNKQGSPSSSMHDPRMIMNLNLMAQEDPKLNTLMETVAKGLANNSQLEEFKKFIEIAKKRSLEENPVNKRPSVTTTRPAPPSKAKDVAEDHRLNSITLVKSSKTAATEPEPKKADDENAEKQQSKEAKTTAESTQVDVKKEEEDVKEKGVKSEDTQKKEDNQVVPKRKRRKNAIKEDKDMQLTAFQQKYVQGAEIILEYLEFTHSRYYLPKKSVVEFLEDTDEIIISWIVIHNSKEIEKFKTKKIKAKLKADQKLNKEDAKPGSDVEKEVSFNPLFEADCPTPLYTPMTMKLSGIHKRFNQIIRNSVSPMEEVVKEMEKILQIGTRLSGYNLWYQLDGYDDEALSESLRFELNEWEHAMRSRRHKR
not listed: [10]
binds: all other assays above
